# Data published in PubChem BioAssay AID485314 (National Center for Advancing Translational Sciences (NCATS), 2010).
# Screen size: about 340,000 compounds; about 4,500 (1.3%) were called active. The inconclusive results got no clear call from the source; some entries with a clear call stand among them for comparison. Calls come from the whole dose curve; as a rule, active = well fitted inhibition curve with a large enough effect; inconclusive = small, poorly fitted or top-dose-only effect, or another doubt; inactive = no such curve, though single readings can be large or run the other way. Potencies of inconclusive entries are doubtful fits and often do not repeat.
# Target: DNA polymerase beta (Homo sapiens) (UniProt P06746)
# Test: qHTS Assay for Inhibitors of DNA Polymerase Beta
# Details: Pol beta primer extension/strand displacement, fluorescence kinetic; activity change, negative = inhibition: at 114 µM (top of the series)
# How it was run: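 Reaction started by 50 nM substrate onto compound-treated Pol beta (10 nM, 15 min preincubation, room temperature); plates read at 0 min and 10 min. Normalized concentration-effect data fitted by four-parameter Hill equation.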
# % is set by controls: 0 for no effect and ±100 for the full control effect; potency is the fitted concentration of half-maximal effect.
SMILES,Potency,"activity change, negative = inhibition"
CC(=O)Nc1cccc(NC(=O)Nc2cccc(Cl)c2C)c1,active: 44.7 µM,
NS(=O)(=O)c1ccc(NC(=S)NC(=O)/C=C/c2ccco2)cc1,"inconclusive: 31.6 µM [inhibitor, partial curve]",
COc1cc2c(c(OC)c1OC)CC(=O)N(C)CC2,"inconclusive: 100 µM [inhibitor, single point]",
CC(=O)N1CCOc2cc(S(=O)(=O)Nc3cccc(C(F)(F)F)c3)c(Cl)cc21,"inconclusive: 89.1 µM [inhibitor, single point]",
Cc1cc2cc(C)c(SCC(=O)NCc3ccco3)nc2cc1C,"inconclusive: 79.4 µM [inhibitor, single point]",
CCOC(=O)C1=C(C)Nc2ccccc2N=C1NC(=O)Cc1ccc(Br)cc1,"inconclusive: 89.1 µM [inhibitor, single point]",
COc1ccc(OC)c(NC(=O)Cc2coc3ccc(C(C)C)cc23)c1,"inconclusive: 25.1 µM [inhibitor, partial curve, poor fit]",
CCOC(=O)c1c(-c2ccccc2)oc2ccc(N(C(C)=O)S(=O)(=O)c3cc(C)ccc3C)cc12,,inactive: 14.8%
CN1CCN(CC(=O)Nc2ccc(Cl)cc2Cl)CC1,"inconclusive: 89.1 µM [inhibitor, single point]",
CC(C)(C)c1nc(N2CCN(C(=O)c3ccco3)CC2)c2nnn(Cc3ccccc3)c2n1,"inconclusive: 0.199 µM [inhibitor, full curve, poor fit]",
COc1ccc2c(CC(=O)NC(Cc3ccc(Cl)cc3)C(=O)O)cc(=O)oc2c1C (centres undefined),"inconclusive: 89.1 µM [inhibitor, single point]",
Cc1cccc(NC(=O)CSc2nc(N)cc(N)n2)c1,,inactive: -0.76%
CCc1ccc(N=C2NC(=O)CC(C(=O)Nc3ccc(OC)cc3)S2)cc1 (centres undefined),active: 17.8 µM,
CCCn1c2ccccc2c2nnc(SCC(=O)Nc3nnc(CC(=O)OCC)s3)nc21,"inconclusive: 25.1 µM [inhibitor, full curve, poor fit]",
CCOC(=O)c1ccccc1NC(=O)Cn1cc(C(=O)c2cccc(OC)c2)c(=O)c2ccc(C)nc21,"inconclusive: 25.1 µM [inhibitor, single point]",
O=C(COc1ccc(-n2cnnn2)cc1)Nc1cccc(Cl)c1Cl,active: 50.1 µM,
COCCc1nn2c(=O)cc(COC(=O)c3ccc4c(c3)OCO4)nc2s1,"inconclusive: 22.4 µM [inhibitor, full curve]",
CC(=O)Nc1sc(/C(C#N)=C\c2cccc(Cl)c2)nc1-c1ccc(C)cc1,"inconclusive: 89.1 µM [inhibitor, single point]",
O=C(NCc1ccccc1F)c1cccc(S(=O)(=O)NCc2ccccc2)c1,"inconclusive: 50.1 µM [inhibitor, partial curve, poor fit]",
CC(=O)N1C=Cc2c(c(C)c3c([nH]c4ccccc43)c2C)C1,,inconclusive: -86.7% [inhibitor]
N#CCc1ccc(NC(=O)/C=C/c2ccc([N+](=O)[O-])o2)cc1,"inconclusive: 25.1 µM [inhibitor, full curve, poor fit]",
CC(=O)N1CCc2cc(CNS(=O)(=O)c3ccc(F)cc3)ccc21,"inconclusive: 39.8 µM [inhibitor, single point]",
Cc1ccc(-c2cc(C(=O)Nc3ccc(S(=O)(=O)Nc4ncccn4)cc3)[nH]n2)c(O)c1C,,inconclusive: -88.9% [inhibitor]

SMILES,Potency,"activity change, negative = inhibition"
CCc1c(C)sc2c1CCN(Cc1cccc(F)c1)C2c1ccccc1 (centres undefined),,inactive: 28.5%
CCc1ccc(-c2cn3c(n2)sc2cc(C(=O)NC4CCCCCC4)ccc23)cc1,,inactive: 4.93%
Cc1nc2cc(S(=O)(=O)C(F)(F)F)ccc2s1,"inconclusive: 28.2 µM [inhibitor, single point]",
CC(/C=C/C(=O)c1ccc(C)cc1)=C\c1ccccc1,"inconclusive: 17.8 µM [inhibitor, single point]",
CCc1nnc(NS(=O)(=O)c2ccc(NC(=O)c3cccc(Br)c3)cc2)s1,,inactive: -4.67%
CC1=C(CC(=O)c2ccc(Cl)cc2)C(=O)c2ccccc2C1=O,"inconclusive: 10 µM [inhibitor, partial curve]",
Cc1nn(C)cc1C(C(=O)NC1CCCCC1)N(C(=O)Cc1cccs1)c1ccc(C(C)C)cc1 (centres undefined),"inconclusive: 20 µM [inhibitor, partial curve]",
Cc1ccc(F)c(NC(=O)c2ccc(Cn3cc(Cl)cn3)cc2)c1,"inconclusive: 0.501 µM [inhibitor, full curve, poor fit]",
Cc1ccc(C2C(C#N)=C(N)Oc3c2sc2ccccc32)o1 (centres undefined),"inconclusive: 22.4 µM [inhibitor, full curve]",
CCC(=O)N1c2ccccc2-c2nnc(SC)nc2OC1c1ccc(N(C)C)cc1 (centres undefined),"inconclusive: 50.1 µM [inhibitor, partial curve]",
Cc1ccc(SCC(=O)NCCc2ccc(F)cc2)cc1,,inactive: 24.3%
CCOC(=O)c1ccccc1NC(=O)CSc1nnc(COc2ccccc2C)n1C,"inconclusive: 79.4 µM [inhibitor, partial curve]",
COc1ccc(NS(=O)(=O)c2cccc(NC(=O)c3cnccn3)c2)cc1Br,"inconclusive: 0.112 µM [inhibitor, full curve, poor fit]",
CCCCOc1ccc(C(=O)OCC(=O)N2CCOCC2)cc1,"inconclusive: 4.47 µM [inhibitor, single point]",
Cc1cc(-c2ccc(C(=O)O)s2)cnc1N,"inconclusive: 89.1 µM [inhibitor, single point]",
CN(C)S(=O)(=O)N(CC(=O)N(Cc1ccccc1)Cc1ccccc1)c1ccccc1,active: 22.4 µM,
Cc1ccc(C(=O)Nc2sc3c(c2C(=O)O)CCCC3)o1,,inactive: -11.1%
Fc1ccc(-c2nc(Nc3ccc(F)c(Cl)c3)nc3c2COc2ccccc2-3)cc1,"inconclusive: 0.447 µM [inhibitor, full curve, poor fit]",
CC(C)C[C@H](NC(=O)C1CC(=O)N(c2ccc3c(c2)OCO3)C1)C(=O)NC1CCCC1 (some centres undefined),,inactive: 14.4%
O=C(Cn1ncnn1)OCc1ccccc1Cl,"inconclusive: 0.141 µM [inhibitor, full curve, poor fit]",
O=C(O)c1ccc(CN2C(=O)CSC2=S)cc1,"inconclusive: 63.1 µM [inhibitor, single point]",
Cc1ccc(Oc2ccc3c(c2)C(=O)N(c2ccc(S(=O)(=O)Nc4nccs4)cc2)C3=O)cc1,,inactive: -9.14%
Cc1ccccc1NC(=O)COC(=O)c1ccc(S(C)(=O)=O)c([N+](=O)[O-])c1,"inconclusive: 0.316 µM [inhibitor, full curve, poor fit]",

SMILES,Potency,"activity change, negative = inhibition"
COc1ccccc1C(CCN(Cc1cccs1)C(C)=O)c1ccco1 (centres undefined),active: 28.2 µM,
COc1ccccc1N(CC(=O)NC1CCCC1)C(=O)CNC(=O)c1cccs1,,inactive: 15.7%
Cc1ccc2nc(-c3ccc(-c4ccccn4)s3)cn2c1,active: 39.8 µM,
Cc1ccc(N(Cc2cccs2)C(=O)c2ccco2)cc1,,inactive: -15.4%
COc1cc(Nc2nc(SCC(=O)c3ccc(Cl)c(Cl)c3)nc3ccccc23)cc(OC)c1,"inconclusive: 89.1 µM [inhibitor, single point]",
CN1/C(=C\C(=O)c2cccnc2)Sc2ccccc21,"inconclusive: 100 µM [inhibitor, single point]",
COc1ccccc1-c1nc2s/c(=C\c3cccs3)c(=O)n2n1,"inconclusive: 56.2 µM [inhibitor, partial curve]",
CC(=O)C1=C(O)C(=O)N(c2ccc(Br)cn2)C1c1ccccc1[N+](=O)[O-] (centres undefined),,inactive: -0.194%
O=C1CCC(C(=O)Nc2ccc(OC(F)F)cc2)N1 (centres undefined),"inconclusive: 89.1 µM [inhibitor, single point]",
COc1ccc(NC(=O)CN(c2ccc(OC)c(Cl)c2)S(=O)(=O)c2ccccc2)cc1,,inactive: 4.79%
CCOC(=O)c1ccc(Nc2nn3c(=O)c4ccccc4nc3s2)cc1,"inconclusive: 10 µM [inhibitor, partial curve, poor fit]",
CCCCN(C)C(=O)c1ccc2c(c1)N(Cc1cccc(F)c1)C(=O)c1ccccc1S2,"inconclusive: 14.1 µM [inhibitor, single point]",
O=C(Nc1nccs1)c1cc(-c2ccco2)nc2ccccc12,active: 7.08 µM,
O=C(Nc1nc(-c2ccc3c(c2)OCCO3)cs1)C1CCCC1,"inconclusive: 89.1 µM [inhibitor, single point]",
COc1ccccc1NC(=O)COC(=O)c1ccccc1OCC(=O)Nc1ccc(SC(F)F)cc1,"inconclusive: 89.1 µM [inhibitor, single point]",
COc1ccc(NC(=O)c2oc3ccccc3c2NC(=O)C2CCCCC2)c(OC)c1,,inactive: 14%
Cc1cccc(-n2c(=O)c3c4c(sc3n3c(C)nnc23)CCCC4)c1,,inactive: 3.07%
O=C(CCCCCn1c(=S)[nH]c2cc3c(cc2c1=O)OCO3)N1CCN(Cc2ccccc2)CC1,,inactive: 16.5%
O=C1C(Cl)=C(N2CCOCC2)C(=O)N1c1ccccc1Cl,"inconclusive: 25.1 µM [inhibitor, partial curve]",
O=C(COC(=O)c1cccc(Oc2ccccc2)c1)NCc1ccco1,"inconclusive: 0.447 µM [inhibitor, full curve, poor fit]",
COc1ccc(C(=O)NCCCCCC(=O)O)cc1OC,"inconclusive: 0.316 µM [inhibitor, full curve]",
COc1cc(/C=N/N2CCN(Cc3ccc(Cl)cc3)CC2)cc(Br)c1O,"inconclusive: 100 µM [inhibitor, single point]",
O=C(Nc1ccccc1)c1snc2c(=O)[nH]cnc12,"inconclusive: 0.794 µM [inhibitor, partial curve, poor fit]",
